# From PubChem BioAssay AID504594 (Broad Institute, 2011)
# Hit rate of the full screen: of about 2,000 compounds, fewer than 10 were called active.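 The calls were made as follows: active = growth inhibition of at least 75% in every replicate, which also brings the mean inhibition to 75% or more; inconclusive = mean inhibition 75% or more but some replicate under 75%; inactive = the rest.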 Some of the results follow.
# Assay: growth inhibition of PfHsp90-dependent yeast, primary screen, antimalarial PfHsp90 inhibitor project, S. cerevisiae, BacTiter-Glo luminescence (AID 504594);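 also: 0% = DMSO neutral control wells and 100% = 20 µM radicicol control wells; higher value means stronger growth inhibition because the sign is flipped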
# Details: S. cerevisiae expressing PfHsp90, BacTiter-Glo growth, 48 h; at 9.4 µM; active compounds read high
row,Structure (SMILES),growth inhibition
1,CC(C)(C)c1ccc(/C=C/C(=O)N2CCCCC2)cc1,inactive: 4.98%
2,Cc1ccc(C(=O)COC(=O)c2cnccn2)cc1[N+](=O)[O-],inactive: -1.07%
3,NC12CC3CC(C1)CC(O)(C3)C2,inactive: -4.05%
4,COc1cc(OC)cc(C(=O)N[C@@H](CCSC)c2nc3ccccc3[nH]2)c1,inactive: -0.625%
5,Cc1[nH]c2ccccc2c1C(=O)CN1CCCC1,inactive: -6.07%
6,COc1cc2c(cc1OC)CN(Cc1ccc(C)s1)CC2,inactive: -0.416%
7,CC(C)C1Cc2[nH]c(=O)c(C(=O)O)cc2CO1 (stereo not given),inactive: -4.36%
8,CC1(C)Cc2nc3sc4c(=O)n(CC(N)=O)cnc4c3cc2CO1,inactive: -2.88%
9,NC[C@H]1O[C@H](O[C@H]2[C@H](O)[C@@H](O[C@H]3O[C@H](CO)[C@@H](O)[C@H](N)[C@H]3O)[C@H](N)C[C@@H]2N)[C@H](N)C[C@@H]1O,inactive: 2.83%
10,COc1cc(-c2nnc(-c3cccs3)o2)cc(OC)c1OC,inactive: -0.327%
11,COC(=O)c1cc(COc2ccc3ccc(=O)oc3c2)c(C)o1,inactive: -0.939%
12,Cc1cc(C(C)(C)C)cc(C)c1CC1=NCCN1,inactive: 2.82%
13,CCN(CCCCOC(=O)c1ccc(OC)c(OC)c1)C(C)Cc1ccc(OC)cc1 (stereo not given),inactive: 8.11%
14,C[C@@H]1C[C@H]2[C@@H]3CCC4=CC(=O)C=C[C@]4(C)[C@@]3(F)[C@@H](O)C[C@]2(C)[C@H]1C(=O)CO,inactive: 0.178%
15,COc1cc2nc(N3CCN(C(=O)C4COc5ccccc5O4)CC3)nc(N)c2cc1OC (stereo not given),inactive: -1.97%
16,COc1cc(CNCCc2c[nH]c3ccccc23)cc(Cl)c1OCC(N)=O,inactive: -1.9%
17,FC(F)(F)c1ccc(-c2noc(CN3CCCN(C4CCCCC4)CC3)n2)cc1,inactive: 11%
18,COc1ccc(Cl)cc1C(=O)NCCc1ccc(S(=O)(=O)NC(=O)NC2CCCCC2)cc1,inactive: 1.64%
19,CC(=O)OCC(=O)C1=CCC2C3CCC4=CC(=O)C=CC4(C)C3(F)C(OC(C)=O)CC12C (stereo not given),inactive: 11.1%
20,CC#C[C@]1(O)CC[C@H]2[C@@H]3CCC4=CC(=O)CCC4=C3[C@@H](c3ccc(N(C)C)cc3)C[C@@]21C,inactive: -5.19%
21,COc1ccc(CCNC(=O)CC(c2ccccc2)c2cccc(C)c2O)cc1OC (stereo not given),inactive: -1.09%
22,COc1ccc(/C=C2\CCc3ccccc3C2=O)c(OC)c1OC,inactive: -0.439%
23,CCOC(=O)C1=C(N)Oc2c(c(=O)[nH]c3ccccc23)C1c1ccccc1 (stereo not given),inactive: 4.35%

# In the list so far, these contain a tert-butyl group.
row,Structure (SMILES),growth inhibition
1,CC(C)(C)c1ccc(/C=C/C(=O)N2CCCCC2)cc1,inactive: 4.98%
12,Cc1cc(C(C)(C)C)cc(C)c1CC1=NCCN1,inactive: 2.82%

# (further entries)

row,Structure (SMILES),growth inhibition
1,CC1(C)O[C@@H]2C[C@H]3[C@@H]4C[C@H](F)C5=CC(=O)C=C[C@]5(C)[C@@]4(F)[C@@H](O)C[C@]3(C)[C@]2(C(=O)CO)O1,inactive: -12.5%
2,Cc1cc(C)nc(NS(=O)(=O)c2ccc(N)cc2)n1,inactive: 6.5%
3,O=C(c1ccc(Cl)cc1)C1CCCN(C(=O)/C=C/c2ccccn2)C1 (stereo not given),inactive: 2.71%
4,Cc1ccc(C(=O)Nc2ccc(O)cc2C(=O)O)cc1C,inactive: 4.07%
5,COc1ccc(C2OC(=O)Cc3cc(OC)c(OC)cc32)cc1 (stereo not given),inactive: -17.5%
6,CC(/C=C1\SC(=O)N(CCCC(=O)O)C1=O)=C\c1ccccc1,inactive: 7.7%
7,CCc1cc(/C(Cc2ccccn2)=N\O)c(O)cc1O,inactive: 13.6%
8,CCc1cc(-c2[nH]ncc2-c2ccc3c(c2)OCO3)c(O)cc1O,inactive: -0.444%
9,O=C(O)c1ccc(N2C(=O)/C(=C\c3ccccc3)N=C2c2ccccc2)cc1,inactive: 17.7%
10,COC(=O)c1ccc(CC(=O)c2ccc(O)cc2O)o1,inactive: 5.84%
11,CO[C@H]1C=CO[C@@]2(C)Oc3c(C)c(O)c4c(O)c(c(C=NN5CCN(C)CC5)c(O)c4c3C2=O)NC(=O)C(C)=CC=C[C@H](C)[C@H](O)[C@@H](C)[C@@H](O)[C@@H](C)[C@H](OC(C)=O)[C@@H]1C,inactive: -2.65%
12,CC(=O)Nc1nnc(S(N)(=O)=O)s1,inactive: -1.68%
13,CC(C)Oc1ccc2c(=O)c(-c3ccccc3)coc2c1,inactive: 8.58%
14,COc1cc2[nH]c3c(=O)n(CCN4CCOCC4)cnc3c2cc1OC,inactive: 6.57%
15,CC(C)N(C(=O)Cc1ccccc1[N+](=O)[O-])C(C)C,inactive: 4.35%
16,COc1cc(/C=C/C(=O)N2CCCC2)cc(OC)c1OC,inactive: 2.42%
17,COc1ccc(S(=O)(=O)N2CCN(C(=O)COc3ccc4c(C)cc(=O)oc4c3)CC2)cc1,inactive: -0.116%
18,CC(=O)C1=C(O)C(=O)N(Cc2cccnc2)C1c1ccc(C(C)C)cc1 (stereo not given),inactive: -3.02%
19,COc1cc2cc(C)nc(Cc3cccc4ccccc34)c2cc1OC,inactive: 6.84%
20,CCN(CC)CCNC(=O)c1ccc(N)cc1,inactive: 13%
21,C[N+](C)(C)CCCC(=O)c1ccc2c(c1)OCO2,inactive: 11.2%
22,OC[C@@H](O)[C@@H](O[C@H]1O[C@H](CO)[C@@H](O)[C@H](O)[C@H]1O)[C@H](O)[C@@H](O)CO,inactive: -11.2%

# Of the compounds above, these have a furan ring, fused or not:
row,Structure (SMILES),growth inhibition
11,COC(=O)c1cc(COc2ccc3ccc(=O)oc3c2)c(C)o1,inactive: -0.939%
10,COC(=O)c1ccc(CC(=O)c2ccc(O)cc2O)o1,inactive: 5.84%
